Measurements as given in PubChem BioAssay AID540276 (National Center for Advancing Translational Sciences (NCATS), 2011).
Where “and” joins values, the source holds several entries; their conditions need not be identical. Equal entries are not always repeated. Out of some 300,000 compounds screened, about 5,400 (1.8%) were called active. Inconclusive results, whose numbers are uncertain, are shown with a selection of clear calls. Calls follow the shape of the full dose curve; tested in HEK293 cells. Potencies beside an inconclusive call are fits to weak or partial responses and may not hold up.

Test: qHTS for inhibitors of binding or entry into cells for Marburg Virus
Settings: Marburg virus pseudotyped entry inhibition, cell reporter; activity change, negative = inhibition: at 37.8 µM (top of the series) unless noted
% is scaled to controls: 0 for no effect and ±100 for the full control effect; potency is read from the fitted curve at half-maximal effect.

Row | SMILES | Potency | activity change, negative = inhibition
1 | COc1cccc(C(C(=O)NC2CCCC2)N(CCC(C)C)C(=O)CCC(=O)Nc2cc(C)on2)c1 (centres undefined) | inconclusive: 12.6 µM [inhibitor, single point] | 
2 | CCC(=O)OCCNc1cc(Sc2nc3ccccc3s2)c2nonc2c1[N+](=O)[O-] | inactive and inconclusive: 18.3 µM [inhibitor, single point] | 
3 | Cc1ccc(-c2ccc(/C=N/c3ncn[nH]3)o2)cc1Cl | inconclusive: 11.2 µM [inhibitor, single point] | 
4 | Cc1ccc(NC(=O)CN2C(=O)N/C(=C/c3ccccc3OCc3cccc(C(=O)O)c3)C2=O)cc1 | inconclusive: 3.55 µM [activator, partial curve, poor fit] | 
5 | NC(=O)NC(Cc1ccccc1)c1ccccc1 (centres undefined) | inconclusive: 18.3 µM [inhibitor, single point] | 
6 | O=C(Nc1nc2c(s1)CCCC2=O)c1cnccn1 | inconclusive: 29.1 µM [activator, single point] | 
7 | Cc1nn(C)cc1CN1CCC(n2nccc2NC(=O)CCCc2ccccc2)CC1 |  | inactive: -7.27% [at 46.1 µM]
8 | NC(=O)C1CC12c1ccccc1-c1ccccc12 (centres undefined) | inconclusive: 35.5 µM [activator, single point] | 
9 | O=C(O)CNS(=O)(=O)c1cccc2nsnc12 |  | inactive: -7.25%
10 | Cc1nc(SCc2cccc(Cl)c2)nc2c1CCCC2 |  | inactive: 6.03% [at 46.1 µM]
11 | COc1cc(Cn2ccnc2)c(OC)cc1Cn1ccnc1 | inactive | 
12 | O=C(CCNC(=O)c1ccc([N+](=O)[O-])cc1)Nc1ccccc1N1CCCC1 |  | inactive: -9.66%
13 | Cc1ccoc1C(=O)Nc1cccc(Oc2ccccc2)c1 | inconclusive: 0.631 µM [activator, partial curve] | 
14 | C/C(=N\NC(=O)c1cc(C)nc2ccccc12)c1ccco1 | inconclusive: 3.55 µM [inhibitor, single point] | 
15 | O=C(CSc1n[nH]c(-c2ccc(S(=O)(=O)NC3CCCCC3)cc2)n1)N1CCCC1 |  | inactive: -25.9%
16 | Cc1ccc2ncc(C(=O)c3ccc(C)c(C)c3)c(S(=O)(=O)c3ccc(F)cc3)c2c1 | inconclusive: 1.41 µM [inhibitor, partial curve, poor fit] | 
17 | O=C(N1CCOCC1)N1c2ccccc2Sc2ccccc21 | inconclusive: 14.6 µM [inhibitor, partial curve, poor fit] | 
18 | C/C(=N\Nc1cc(N2CCOCC2)ncn1)c1ccc(O)cc1 | inconclusive: 11.2 µM [inhibitor, partial curve, poor fit] | 
19 | Cc1ccccc1OCCNc1cc(N2CCN(CCO)CC2)ccc1[N+](=O)[O-] | inconclusive: 35.5 µM [inhibitor, partial curve, poor fit] | 
20 | Cc1ccc(CN2CC(C(=O)Nc3cc(C)ccn3)CC2=O)cc1 (centres undefined) | inconclusive: 6.31 µM [activator, single point] | 
21 | C=Cn1ccnc1P(=S)(c1ccccc1)c1nccn1C=C |  | inactive: 0.557% [at 46.1 µM]
22 | COc1ccccc1-n1cc([C@@H]2C[C@H]3CN(c4ccccc4)C(=O)[C@]34CCCN24)cn1 | active: 10 µM | 

Shown as tab-separated lines: 2 of the compounds above.
Row	SMILES	Potency	activity change, negative = inhibition
13	Cc1ccoc1C(=O)Nc1cccc(Oc2ccccc2)c1	inconclusive: 0.631 µM [activator, partial curve]	
14	C/C(=N\NC(=O)c1cc(C)nc2ccccc12)c1ccco1	inconclusive: 3.55 µM [inhibitor, single point]	

(further entries)

Row | SMILES | Potency | activity change, negative = inhibition
23 | CCOc1ccc(-c2nn(-c3ccccc3)cc2C2NC(=O)NC(C)=C2C(=O)OC(C)C)cc1 (centres undefined) | inconclusive: 14.1 µM [inhibitor, partial curve, poor fit] | 
24 | NC(=O)c1nsc(C(=O)N(c2cccc(F)c2)C(C(=O)NCC2CCCO2)c2c[nH]c3ccccc23)c1N (centres undefined) | inconclusive: 35.5 µM [inhibitor, single point] | 
25 | Cc1ccc(Cl)cc1N1CCN(CC(=O)Nc2ccc(CN3CCCCC3)cc2)CC1 | inconclusive: 28.2 µM [inhibitor, single point] | 
26 | CSc1nc(Nc2ccc(F)cc2)cc(-c2ccccc2)n1 | inconclusive: 6.31 µM [inhibitor, partial curve, poor fit] | 
27 | C/C(N)=C(/C#N)C(=O)CSc1nnnn1-c1ccccc1 | inconclusive: 0.501 µM [activator, full curve, poor fit] | 
28 | CCOc1ccc(/C=C2\C(=O)c3ccccc3OC2c2ccccc2)cc1 (centres undefined) |  | inactive: -9.32%
29 | CCSc1nnc(NC(=O)CSc2nc3c(c(=O)n2C)SC(C)C3)s1 (centres undefined) |  | inactive: -18.7%
30 | CCc1nnc(NC(=O)CSc2nc(C)cc(C)c2C#N)s1 | active: 7.94 µM | 
31 | C=CCn1c(SCc2cccc(F)c2)nc2cc(C(=O)N3CCC(C(N)=O)CC3)ccc2c1=O | inconclusive: 15.8 µM [inhibitor, single point] | 
32 | COc1ccc(C(=O)N/N=C/c2ccccn2)cc1OC |  | inactive: -19.9%
33 | CCOc1cc(C(=O)O)cc(Cl)c1OC |  | inactive: 1.24%
34 | Cc1ccc(C2c3sc(=O)[nH]c3SC3C4CC(C5C(=O)N(C(C)C(=O)O)C(=O)C45)C23)cc1 (centres undefined) | inconclusive: 6.31 µM [activator, single point] | 
35 | CCc1cc2c(CN3CCN(Cc4ccccc4)CC3)cc(=O)oc2cc1O | inconclusive: 25.1 µM [inhibitor, single point] | 
36 | CN1CCC(OC(=O)COc2ccc(Br)cc2)CC1 | inconclusive: 15.8 µM [activator, partial curve, poor fit] | 
37 | CN1CC2CCCC3(C1)C(=O)NC1(CCCCC1)N=C23 (centres undefined) | inconclusive: 35.5 µM [inhibitor, single point] | 
38 | CCN1C(=O)c2ccccc2Sc2ccc(NC(=O)N3CCN(c4cc(C)ccc4C)CC3)cc21 | inconclusive: 3.98 µM [inhibitor, single point] | 
39 | Cc1cc(=O)oc2cc(OCC3CC(c4ccccc4Cl)=NO3)ccc12 (centres undefined) | inconclusive: 2.31 µM [inhibitor, partial curve] | 
40 | CCn1c2ccccc2c(=O)c2ccccc21 | inactive | 
41 | COc1ccccc1C(=O)N1c2ncnn2C2(CCCCC2)[C@@H]2CCCC[C@@H]21 |  | inactive: -8.73% [at 46.1 µM]
42 | CC(=O)c1cccc(NC(=O)COC(=O)c2ccccc2C)c1 | inconclusive: 5.62 µM [activator, single point] | 
43 | CC(C)CN1Cc2cc(Br)ccc2Oc2ccc(Cl)cc2S1(=O)=O | inconclusive: 0.0141 µM [inhibitor, full curve, poor fit] | 
44 | CCn1c(=O)cc(SCC(=O)NCc2cccc(Cl)c2)c2ccccc21 | inconclusive: 10 µM [inhibitor, partial curve, poor fit] | 
